From publication PMC11232215
No constants are given. Whether binding was seen depends on the method and setting. Binding seen in cells or lysates may run through a third protein. For some assays here: Sequences can lack the tags named with a protein.

The chains behind the UniProt entries cited, without tags or fusion partners.
UniProt O00567: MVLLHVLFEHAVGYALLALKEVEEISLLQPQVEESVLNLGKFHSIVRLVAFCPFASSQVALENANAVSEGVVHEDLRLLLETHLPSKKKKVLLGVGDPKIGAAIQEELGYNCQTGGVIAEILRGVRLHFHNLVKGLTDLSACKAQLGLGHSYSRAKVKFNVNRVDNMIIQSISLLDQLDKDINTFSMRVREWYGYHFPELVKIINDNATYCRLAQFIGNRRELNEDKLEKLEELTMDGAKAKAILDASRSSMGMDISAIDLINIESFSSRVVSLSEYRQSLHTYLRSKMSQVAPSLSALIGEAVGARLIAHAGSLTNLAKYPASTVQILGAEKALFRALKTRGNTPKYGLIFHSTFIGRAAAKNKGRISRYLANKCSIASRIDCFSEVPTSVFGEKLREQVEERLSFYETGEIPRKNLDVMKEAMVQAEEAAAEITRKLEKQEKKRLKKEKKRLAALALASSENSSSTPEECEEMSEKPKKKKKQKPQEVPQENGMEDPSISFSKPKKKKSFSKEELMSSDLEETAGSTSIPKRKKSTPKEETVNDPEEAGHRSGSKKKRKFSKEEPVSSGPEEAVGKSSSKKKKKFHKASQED
UniProt Q9GZX7: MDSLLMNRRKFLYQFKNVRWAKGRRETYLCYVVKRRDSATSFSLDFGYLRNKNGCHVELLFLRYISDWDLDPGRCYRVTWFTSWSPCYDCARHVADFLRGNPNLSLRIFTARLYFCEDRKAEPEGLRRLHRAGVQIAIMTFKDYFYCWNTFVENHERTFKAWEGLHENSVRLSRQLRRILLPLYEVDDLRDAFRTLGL

Legend:
[1] = target: HA-tagged NOP56 (UniProt O00567); experiment: co-IP; HEK293T cells transfected with FLAG-tagged AID (or AIDΔC) and HA-tagged FBL (WT, D1, D2), NOP56 or NOP58; lysates in NETN-100 buffer 24 h after transfection; protein A or G beads with the precipitating antibody, 4 °C overnight; reciprocal ('reversible') co-IP; Western blot
[2] = target: T1, HA-tagged NOP58 (UniProt Q9Y2X3); experiment: as above
T1 sequence: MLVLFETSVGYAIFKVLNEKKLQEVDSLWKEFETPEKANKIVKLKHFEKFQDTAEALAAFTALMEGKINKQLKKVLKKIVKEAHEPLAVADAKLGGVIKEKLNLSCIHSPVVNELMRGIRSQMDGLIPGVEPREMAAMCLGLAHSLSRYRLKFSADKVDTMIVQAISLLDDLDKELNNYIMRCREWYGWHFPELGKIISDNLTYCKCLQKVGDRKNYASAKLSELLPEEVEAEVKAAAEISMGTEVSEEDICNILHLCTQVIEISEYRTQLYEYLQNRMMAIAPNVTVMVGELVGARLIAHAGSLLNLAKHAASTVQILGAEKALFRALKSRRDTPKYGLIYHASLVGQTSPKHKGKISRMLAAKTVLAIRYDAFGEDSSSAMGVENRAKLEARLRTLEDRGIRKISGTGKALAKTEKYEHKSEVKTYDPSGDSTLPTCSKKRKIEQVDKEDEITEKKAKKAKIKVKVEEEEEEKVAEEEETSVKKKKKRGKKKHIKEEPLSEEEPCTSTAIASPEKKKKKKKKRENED

## FLAG-tagged activation-induced cytidine deaminase (AID), wild type (from UniProt Q9GZX7 1-198) (enzyme)
[1]
  binding: no binding
[2]
  binding: no binding
